The target in assay [1] is T1, GST-tagged SHMT2α (GST-SHMT2α) (human) (UniProt P34897).
T1 sequence: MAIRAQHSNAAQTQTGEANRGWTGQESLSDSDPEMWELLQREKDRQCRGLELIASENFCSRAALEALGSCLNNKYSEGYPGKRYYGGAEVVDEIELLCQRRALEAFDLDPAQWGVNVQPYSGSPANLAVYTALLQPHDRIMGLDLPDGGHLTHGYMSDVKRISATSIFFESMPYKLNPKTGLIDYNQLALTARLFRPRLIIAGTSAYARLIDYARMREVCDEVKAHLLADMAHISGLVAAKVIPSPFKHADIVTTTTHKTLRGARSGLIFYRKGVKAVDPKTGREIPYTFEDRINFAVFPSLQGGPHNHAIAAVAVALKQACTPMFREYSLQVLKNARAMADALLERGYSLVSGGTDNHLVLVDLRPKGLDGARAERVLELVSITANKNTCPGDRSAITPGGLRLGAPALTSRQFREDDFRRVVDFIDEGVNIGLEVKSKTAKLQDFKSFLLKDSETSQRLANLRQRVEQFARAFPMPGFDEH
Description: pull-down; GST-SHMT2α on beads added to HCT116 cell lysates, overnight at 4 °C, washed twice with PBST, immunoblot; only the target purified.

Chains of the proteins cited; added tags and fusions are not shown.
UniProt P35222: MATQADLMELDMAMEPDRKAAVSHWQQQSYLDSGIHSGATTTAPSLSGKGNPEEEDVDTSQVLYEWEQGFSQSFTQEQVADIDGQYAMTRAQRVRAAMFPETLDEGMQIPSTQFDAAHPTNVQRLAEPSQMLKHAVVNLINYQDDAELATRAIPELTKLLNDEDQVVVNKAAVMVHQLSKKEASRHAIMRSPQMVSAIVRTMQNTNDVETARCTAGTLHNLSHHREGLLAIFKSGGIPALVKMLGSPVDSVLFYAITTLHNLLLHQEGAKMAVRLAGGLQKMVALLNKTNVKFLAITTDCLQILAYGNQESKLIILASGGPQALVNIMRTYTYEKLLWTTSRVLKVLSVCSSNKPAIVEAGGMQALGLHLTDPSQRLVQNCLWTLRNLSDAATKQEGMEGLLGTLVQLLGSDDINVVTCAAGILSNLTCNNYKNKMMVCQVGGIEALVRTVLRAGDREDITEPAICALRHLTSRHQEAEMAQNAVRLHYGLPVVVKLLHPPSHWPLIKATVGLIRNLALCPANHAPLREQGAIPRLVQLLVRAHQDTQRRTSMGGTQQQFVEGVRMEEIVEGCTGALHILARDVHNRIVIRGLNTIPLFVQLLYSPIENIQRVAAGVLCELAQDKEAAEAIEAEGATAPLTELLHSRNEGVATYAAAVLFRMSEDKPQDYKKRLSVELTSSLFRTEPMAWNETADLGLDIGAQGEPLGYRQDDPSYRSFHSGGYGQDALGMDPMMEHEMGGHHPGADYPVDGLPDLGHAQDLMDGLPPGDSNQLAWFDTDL

The target of assay [2] is T2, Flag-tagged SHMT2α (shRNA-resistant) (human) (UniProt P34897).
T2 sequence: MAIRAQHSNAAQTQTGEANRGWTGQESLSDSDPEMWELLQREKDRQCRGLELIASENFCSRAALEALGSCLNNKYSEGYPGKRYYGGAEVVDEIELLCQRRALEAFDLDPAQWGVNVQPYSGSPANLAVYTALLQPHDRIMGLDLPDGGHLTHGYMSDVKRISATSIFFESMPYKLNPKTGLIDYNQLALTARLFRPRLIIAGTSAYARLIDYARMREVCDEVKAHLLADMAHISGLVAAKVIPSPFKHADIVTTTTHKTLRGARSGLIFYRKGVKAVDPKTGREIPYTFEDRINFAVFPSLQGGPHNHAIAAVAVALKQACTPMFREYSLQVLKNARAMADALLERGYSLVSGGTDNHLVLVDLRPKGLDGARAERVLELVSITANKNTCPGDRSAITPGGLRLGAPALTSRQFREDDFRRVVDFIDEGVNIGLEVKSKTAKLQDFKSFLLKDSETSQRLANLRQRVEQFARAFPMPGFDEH
The experiment in a line: co-IP; stable SHMT2-knockdown HCT116 and DLD-1 cells re-expressing shRNA-resistant Flag-SHMT2α or K64R; immunoprecipitation with the indicated antibodies.

Assay [3] addresses T3, Serine hydroxymethyltransferase 2 (SHMT2), endogenous (human (endogenous in HCT116 and DLD-1)) (UniProt P34897).
T3 sequence: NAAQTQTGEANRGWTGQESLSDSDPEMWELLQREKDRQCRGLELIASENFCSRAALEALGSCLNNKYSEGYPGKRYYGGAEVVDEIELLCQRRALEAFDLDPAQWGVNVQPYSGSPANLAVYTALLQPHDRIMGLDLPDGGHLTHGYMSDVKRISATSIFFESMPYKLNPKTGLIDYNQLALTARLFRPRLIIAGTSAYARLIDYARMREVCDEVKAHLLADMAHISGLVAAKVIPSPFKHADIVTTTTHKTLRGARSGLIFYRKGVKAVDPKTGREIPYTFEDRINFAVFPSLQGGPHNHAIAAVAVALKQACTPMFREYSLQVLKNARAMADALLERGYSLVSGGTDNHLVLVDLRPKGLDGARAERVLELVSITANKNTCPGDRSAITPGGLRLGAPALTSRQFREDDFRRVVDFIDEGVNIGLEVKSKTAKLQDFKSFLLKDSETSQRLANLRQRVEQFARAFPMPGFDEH
The experiment in a line: co-IP; endogenous proteins; cytoplasmic and nuclear protein separated from HCT116 and DLD-1 cells and immunoprecipitated with the indicated antibodies.

Assay [4] deals with β-catenin (human (endogenous in HCT116 and DLD-1)) (UniProt P35222). Description: pull-down; competition: excess and equal amounts of untagged SHMT2α or ΔSHMT2 added to HCT116 cell lysates before beads with GST-SHMT2α, overnight at 4 °C, immunoblot of β-catenin; only the binder purified.

This note sets out measurements from paper PMC7806468.

No constants are given. Whether binding was seen depends on the method and setting. In cells and extracts the contact can be indirect. Some entries that bind do so weakly or less than the wild type. For some of these results: Tags and fused reporters may be left off the sequences shown.

As for β-catenin (from UniProt P35222 1-781), the binding result in assay [1], in assay [2] and in assay [3] was “binds” in each case.

B1: SHMT2α (GST tag cleaved by TEV protease) (enzyme, UniProt P34897 22-504)
chain: MAIRAQHSNAAQTQTGEANRGWTGQESLSDSDPEMWELLQREKDRQCRGLELIASENFCSRAALEALGSCLNNKYSEGYPGKRYYGGAEVVDEIELLCQRRALEAFDLDPAQWGVNVQPYSGSPANLAVYTALLQPHDRIMGLDLPDGGHLTHGYMSDVKRISATSIFFESMPYKLNPKTGLIDYNQLALTARLFRPRLIIAGTSAYARLIDYARMREVCDEVKAHLLADMAHISGLVAAKVIPSPFKHADIVTTTTHKTLRGARSGLIFYRKGVKAVDPKTGREIPYTFEDRINFAVFPSLQGGPHNHAIAAVAVALKQACTPMFREYSLQVLKNARAMADALLERGYSLVSGGTDNHLVLVDLRPKGLDGARAERVLELVSITANKNTCPGDRSAITPGGLRLGAPALTSRQFREDDFRRVVDFIDEGVNIGLEVKSKTAKLQDFKSFLLKDSETSQRLANLRQRVEQFARAFPMPGFDEH
B1: the binding result in assay [4] is reported as “binds”.
